# No constants are given. Whether binding was seen depends on the method and setting. Binding seen in cells or lysates may run through a third protein.
# By UniProt entry, the sequences of proteins in these tests, tags left out.
# UniProt P04150: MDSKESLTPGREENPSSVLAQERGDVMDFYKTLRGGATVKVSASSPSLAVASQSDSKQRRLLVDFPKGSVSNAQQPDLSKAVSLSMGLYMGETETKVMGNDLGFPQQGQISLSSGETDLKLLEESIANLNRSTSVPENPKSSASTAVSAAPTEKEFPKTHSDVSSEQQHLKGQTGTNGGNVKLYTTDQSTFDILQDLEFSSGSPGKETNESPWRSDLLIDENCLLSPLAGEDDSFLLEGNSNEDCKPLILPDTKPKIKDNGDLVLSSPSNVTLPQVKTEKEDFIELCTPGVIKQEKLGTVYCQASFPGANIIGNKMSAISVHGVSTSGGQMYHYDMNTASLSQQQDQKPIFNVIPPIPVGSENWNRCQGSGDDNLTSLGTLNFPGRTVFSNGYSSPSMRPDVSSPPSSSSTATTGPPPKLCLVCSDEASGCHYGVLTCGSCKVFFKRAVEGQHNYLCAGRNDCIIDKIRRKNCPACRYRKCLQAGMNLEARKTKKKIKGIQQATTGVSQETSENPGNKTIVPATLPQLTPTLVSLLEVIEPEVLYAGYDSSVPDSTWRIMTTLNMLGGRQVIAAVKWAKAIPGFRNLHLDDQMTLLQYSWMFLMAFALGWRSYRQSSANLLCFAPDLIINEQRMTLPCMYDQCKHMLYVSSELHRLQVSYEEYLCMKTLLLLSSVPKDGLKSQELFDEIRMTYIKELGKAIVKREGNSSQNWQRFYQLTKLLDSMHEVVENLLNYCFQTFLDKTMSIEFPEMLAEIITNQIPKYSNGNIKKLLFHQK
# UniProt Q16665: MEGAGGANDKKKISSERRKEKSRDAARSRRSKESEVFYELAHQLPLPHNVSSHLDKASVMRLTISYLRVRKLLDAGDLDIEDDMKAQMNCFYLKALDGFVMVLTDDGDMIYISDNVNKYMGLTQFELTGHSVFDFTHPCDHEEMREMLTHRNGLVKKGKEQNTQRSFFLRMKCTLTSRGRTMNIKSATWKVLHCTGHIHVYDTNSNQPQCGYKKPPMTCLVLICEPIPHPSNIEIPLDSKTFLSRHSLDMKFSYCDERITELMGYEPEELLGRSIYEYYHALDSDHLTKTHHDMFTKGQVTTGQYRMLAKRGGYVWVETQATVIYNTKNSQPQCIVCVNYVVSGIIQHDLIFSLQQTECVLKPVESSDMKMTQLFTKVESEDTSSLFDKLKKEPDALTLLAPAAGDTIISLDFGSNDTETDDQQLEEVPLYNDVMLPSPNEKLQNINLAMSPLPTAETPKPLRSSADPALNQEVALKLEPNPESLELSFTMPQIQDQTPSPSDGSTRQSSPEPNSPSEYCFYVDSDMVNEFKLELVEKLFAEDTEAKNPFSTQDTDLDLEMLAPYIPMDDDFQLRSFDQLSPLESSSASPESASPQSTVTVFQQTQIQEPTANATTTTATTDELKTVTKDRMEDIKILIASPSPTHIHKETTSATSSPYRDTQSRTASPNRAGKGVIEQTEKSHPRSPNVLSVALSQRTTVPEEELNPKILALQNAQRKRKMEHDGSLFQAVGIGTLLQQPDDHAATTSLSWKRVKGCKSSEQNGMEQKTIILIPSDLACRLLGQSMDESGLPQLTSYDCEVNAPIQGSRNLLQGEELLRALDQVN
# Biological target: glucocorticoid receptor (human (endogenous in HeLa)) (UniProt P04150)
# Experiment: co-IP; HeLa cells (transfected with HIF-1α per methods; treated with deferoxamine per legend), with or without 100 nM dexamethasone for 1 h, lysed in RIPA buffer; GR immunoprecipitated with GR antibody (IgG as control) on Protein A Sepharose overnight at 4 °C; immunoblotted for HIF-1α
substance,measurement,value
HIF-1α (from UniProt Q16665 1-826),binding,no binding

# — paper PMC7646191
